In all, about 320,000 compounds went through this assay and about 2,100 (0.66%) were called active. Inconclusive means that the source gave no clear call. Such entries were picked first, then a sample of the others. Calls follow the shape of the dose curve; as a rule, active = well fitted inhibition curve with a large enough effect in the signal ratio, with a control signal flat (not every such curve was filed as active); inconclusive = small, poorly fitted or top-dose-only effect, or effect the other way, or a change in a side signal; inactive = flat fitted curve, though single readings scatter; the % refers to the signal ratio. Potencies beside an inconclusive call are fits to weak or partial responses and may not hold up.
assay: qHTS Assay for Lipid Storage Modulators in Drosophila S3 Cells; conditions: BODIPY lipid droplet fluorescence, 18-24 h, cells fed with added oleic acid; lipid storage change, negative = inhibition: at 46.1 µM (top of the series) unless noted
Outline: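 Drosophila S3 cells loaded with oleic acid (400 uM, as added) and compounds at several concentrations; lipid droplets imaged by 488-nm laser-scanning cytometry, 500–530 nm intensity and object ratio to cell channel. Percent activity normalized to 20 uM Triacsin C.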
% is scaled to controls: 0 for no effect and ±100 for the full control effect; potency is read from the fitted curve at half-maximal effect.

SMILES	Potency	lipid storage change, negative = inhibition
Cc1cccc(CNc2ccc(S(=O)(=O)N3CCCCC3)cc2)c1	inconclusive: 29.1 µM [falling, single point]	–
COc1ccc(CCNC(=O)c2cnn3c(C(F)F)cc(C)nc23)cc1OC	inconclusive: 18.4 µM [activator, single point]	–
O=C(O)c1ccc(NC(=O)C2(c3ccccc3)CCOCC2)cc1	inconclusive: 0.651 µM [falling, full curve, poor fit]	–
CC(C)c1ccc(CN(C)CC(O)c2ccccc2)cc1 (stereo not given)	–	inconclusive: 18.9%
CCCCCC(=O)Nc1cccc(C2=NOC3(C2)C[C@H](C(N)=O)N(C(=O)[C@H]2CCC(=O)N2)C3)c1 (stereo not given in full)	–	inconclusive: -30.1%
CCc1ccc(C2CC(c3ccccc3Cl)Nc3nc(N)nn32)cc1 (stereo not given)	inconclusive: 23.1 µM [activator, single point]	–
CCCC1=[N+](CC(=O)c2ccc(Br)cc2)CCn2cccc21	inconclusive: 0.116 µM [cytotoxic, full curve, poor fit]	–
Cc1ccc(-n2[nH]c3c4c(ccc3c2=O)C(=O)c2ccccc2C4=O)cc1	–	inconclusive: -19.4%
N#CCC(=O)Nc1ccc(C(=O)NNC(=O)CCN2CCN(c3ccccc3)CC2)cc1	–	inconclusive: 12.7%
COC(CNC(=O)c1ccc(N2CCC3(CC2)OCCO3)c([N+](=O)[O-])c1)OC	–	inactive
CC(C)(C)C1=NN(c2ccc([N+](=O)[O-])cc2)C(c2ccccc2)C1 (stereo not given)	–	inconclusive: 57.1%
Cc1cccc(C)c1OCC(=O)Nc1cccc(C(=O)O)c1	–	inconclusive: -36%
COc1cc(SC)ccc1C(=O)Nc1nccs1	–	inconclusive: 21.7%
NS(=O)(=O)c1ccc(CCNC(=O)CNC(=O)c2ccc(Oc3ccccc3)cc2)cc1	inconclusive: 25.9 µM [activator, single point]	–
O=C(NCCC1=CCCCC1)c1cc(COc2c(F)cccc2F)on1	–	inconclusive: 22.9%
Cc1ccc(-c2nnc(SCCC(=O)N3CCOCC3)o2)cc1	–	inconclusive: 13%
COc1cc(NS(=O)(=O)c2ccc(NC(=O)/C(=C\c3ccccc3OC)NC(=O)c3ccccc3)cc2)nc(OC)n1	inconclusive: 0.0651 µM [falling, full curve, poor fit]	–
C[C@H](CCC(=O)NCC(=O)O)[C@H]1CC[C@H]2C3[C@H](O)C[C@@H]4C[C@H](O)CC[C@]4(C)[C@H]3C[C@H](O)[C@]12C (stereo not given in full)	–	inconclusive: -22.8%
Cc1cccc([C@@H]2[C@@H]3C(=O)N(Cc4ccccc4)C(=O)[C@@H]3[C@]3(Cc4ccc(Cl)cc4)C(=O)N(c4cccc(Cl)c4)C(=O)N23)c1	–	inconclusive: -13.8%
CCCC(=O)NCCc1cc2c(C)ccc(C)c2[nH]c1=O	inconclusive: 6.51 µM [activator, partial curve, poor fit]	–
CC(=O)Nc1ccc(/C=N/NC(=O)CCN2CCN(c3ccccc3)CC2)cc1	inconclusive: 2.06 µM [falling, partial curve, poor fit]	–
C=CCNC(=S)N1CCN(c2cccc(C(F)(F)F)c2)CC1	inconclusive: 7.31 µM [activator, partial curve]	–
CCOc1ccc(NC(=O)CNC(=O)Cc2ccccc2)cc1	inconclusive: 0.231 µM [activator, full curve, poor fit]	–
CCCCCCNC(=O)CCNS(=O)(=O)c1ccc(C)cc1	–	inconclusive: -29.2%
COC(=O)N1N=C(c2ccccc2)CC1(O)C(F)(F)F (stereo not given)	inconclusive: 0.0058 µM [activator, full curve, poor fit]	–

SMILES	Potency	lipid storage change, negative = inhibition
COc1ccccc1C(=O)NCCC(=O)N1CCN(S(=O)(=O)c2ccc(Cl)cc2)CC1	inconclusive: 25.9 µM [falling, single point]	–
CC1(C)CC(=O)CC(C)(C)N1OC(=O)c1ccncc1	inconclusive: 14.6 µM [falling, single point]	–
CCC(=O)c1ccc(OCC(=O)Nc2ccccc2C(=O)NC2CC2)cc1	–	inconclusive: 24.9%
N#Cc1nc(COc2ccccc2)oc1N1CCCCCC1	–	inconclusive: 2.35%
CN(C(=O)COC(=O)CCC(=O)c1ccccc1)c1c(N)n(Cc2ccccc2)c(=O)[nH]c1=O	–	inconclusive: 1.46%
Cc1ccc2nc(/C(C#N)=C/c3cn[nH]c3-c3ccc(F)cc3)[nH]c2c1	–	inactive
O=C(N1CCCCC1)C1(c2ccccc2)CCOCC1	–	inconclusive: 46%
O=C(Nc1ccc2nc3n(c(=O)c2c1)CCCC3)c1ccccc1F	–	inconclusive: 53.3%
Cc1cc(C)cc(NC(=O)COc2ccc3c(C)c(Cc4ccccc4)c(=O)oc3c2)c1	–	inconclusive: 18.3%
CC1(C)c2ssc(=S)c2-c2ccccc2N1C(=O)CSC1=NCCS1	–	inconclusive: -91.7%
COC(=O)c1ccccc1NC(=O)CN1CCC(C)CC1	–	inconclusive: -13.9%
CC(=O)Nc1cccc(C(=O)Nc2ccc(S(=O)(=O)N3CCCCC3)cc2)c1	–	inconclusive: -40.6%
CSc1ccccc1C(=O)C1CCCN(C(=O)c2ccc(N3CCOCC3)cc2)C1 (stereo not given)	inconclusive: 23.1 µM [cytotoxic, partial curve]	–
CC(C)CCN(C)C1CCN(S(=O)(=O)c2cccc(C(F)(F)F)c2)CC1	–	inconclusive: 6.07%
C=CCNC(=O)C1CC=CCC1C(=O)O (stereo not given)	–	inconclusive: -16.8%
CCOc1ccc(NC2=NC(C(=O)NCc3ccccc3)CC(=O)N2)cc1 (stereo not given)	–	inconclusive: -32.7%
Cn1c(SCc2ccccc2Cl)nc(C(F)(F)F)cc1=O	–	inconclusive: 10.8%
O=C1CC(C(=O)NC2CCCCC2)C2(CCCCC2)O1 (stereo not given)	–	inconclusive: 19.1%
CC(C)c1ccc(NC(=O)COC(=O)c2cc(=O)[nH]c3ccccc23)cc1	inconclusive: 5.17 µM [activator, partial curve, poor fit]	–
O=C(c1ccc(N2CCN(C(=O)c3ccccc3Br)CC2)cc1)c1cccc(F)c1	–	inactive
CCc1ccc(C(=O)NNC(=O)CC2OC(=O)c3ccccc32)cc1 (stereo not given)	–	inconclusive: 42.3%
O=C(NC(=S)NCc1ccccc1)C1CC1	–	inconclusive: -15.3%
Cc1ccc(S(=O)(=O)NCC(=O)N2CCCC2)cc1	–	inconclusive: -25.3%
O=C(O)c1cc(S(=O)(=O)Nc2cccc3ccccc23)c(Cl)cc1Cl	–	inconclusive: 26.3%
Cc1cccc(NC(=O)c2cc(Cl)sc2Cl)c1C	–	inconclusive: 21.3%

SMILES	Potency	lipid storage change, negative = inhibition
CCOc1cc(C2NC(=S)NC(C)=C2C(=O)Nc2ccccc2)ccc1O (stereo not given)	–	inconclusive: -23%
Cc1ccc(CNC(=O)C2CCCN(S(=O)(=O)c3cccnc3)C2)cc1 (stereo not given)	inconclusive: 0.13 µM [activator, full curve, poor fit]	–
CC(=O)Nc1cccc(-c2nn[nH]n2)c1	–	inactive
COc1cccc(C2(O)CC(C(F)(F)F)=NN2C(=O)c2ccccn2)c1 (stereo not given)	inconclusive: 18.4 µM [activator, single point]	–
Cc1ccc(S(=O)(=O)N(C)CC(=O)N2CCCc3ccccc32)cc1	–	inconclusive: 12.8%
CCOc1ccc2nc(SCC(=O)NCc3ccc(OC)cc3)[nH]c2c1	inconclusive: 0.82 µM [activator, full curve]	–
COc1ccc(/C=N/NC(N)=S)cc1OC(=O)c1cccc2ccccc12	–	inconclusive: -50.6%
Cc1cc2nc3c(=O)n(CCc4ccccc4)c(=O)[nH]c3nc2cc1N	–	inconclusive: -22.4%
COc1ccc(NC(=O)CS(=O)CC(=O)Nc2ccc(-n3cnnn3)c(C)c2)cc1 (stereo not given)	–	inconclusive: -112%
COc1ccc(S(=O)(=O)N2CCCCCC2)cc1C(=O)N(C)CC(=O)Nc1cc(C)ccc1C	inconclusive: 6.51 µM [activator, single point]	–
O=C1O/C(=C\c2ccccc2)c2ccccc21	–	inconclusive: 29.3%
Cc1c(C(=O)OCC(=O)N2CCCC(C)C2)oc2ccccc12 (stereo not given)	–	inconclusive
Cc1ccc(-c2cc(C(=O)N3CCN(c4ccc(F)cc4)CC3)c3ccccc3n2)o1	–	inconclusive: 315%
COc1ccccc1C(=O)NNC(=O)c1cccc(Br)c1	inconclusive: 0.461 µM [activator, partial curve]	–
O=C(NNC1=C(C(=O)C(F)(F)F)CCC1)c1cccc(Cl)c1	inconclusive: 6.51 µM [activator, single point]	–
C=CCc1ccc(OCC(O)CN2CCCCC2)c(OC)c1 (stereo not given)	–	inconclusive: -9%
Cn1nc(-c2ccc(OCC(=O)Nc3ccccc3)cc2)c2ccccc2c1=O	inconclusive: 1.84 µM [activator, partial curve]	–
O=C(CCC(=O)N1CCN(c2ccc(F)cc2)CC1)N1CCN(c2ccc(F)cc2)CC1	–	inconclusive: -35.6%
COc1ccc2cc(S(=O)(=O)N3CCCCCC3)ccc2c1	inconclusive: 29.1 µM [falling, single point]	–
Cc1sc2nc(CN3CCCC3)nc(N3CCN(S(=O)(=O)c4cccc(F)c4)CC3)c2c1C	–	inconclusive: -55%
Cc1cccc(N2CC(C(=O)OCc3ccc([N+](=O)[O-])cc3)CC2=O)c1 (stereo not given)	–	inconclusive: -10.1%
CCc1nc(-c2ccccc2)c2ccccn12	–	inconclusive: -1.96%
O=C(NCc1ccc(F)cc1)C1CCN(S(=O)(=O)c2ccc(Cl)cc2)CC1	inconclusive: 29.1 µM [falling, single point]	–
COc1cc(C(=O)OCc2nc3ccsc3c(=O)[nH]2)c([N+](=O)[O-])cc1OC	–	inconclusive: 16%
O=C(CN1C(=O)CCSc2ccc(S(=O)(=O)N3CCCC3)cc21)NCc1ccccc1Cl	inconclusive: 29.1 µM [activator, single point]	–

Taken from above.
Entry for C=CCc1ccc(OCC(O)CN2CCCCC2)c(OC)c1 (stereo not given) under lipid storage change, negative = inhibition: inconclusive: -9%
Entry for O=C(O)c1ccc(NC(=O)C2(c3ccccc3)CCOCC2)cc1 under Potency: inconclusive: 0.651 µM [falling, full curve, poor fit]
Entry for Cc1ccc(-c2nnc(SCCC(=O)N3CCOCC3)o2)cc1 under lipid storage change, negative = inhibition: inconclusive: 13%

Source: PubChem BioAssay AID2685 (National Center for Advancing Translational Sciences (NCATS), 2010)
